The whole screen tested about 400,000 compounds, of which about 3,700 (0.93%) were called active. Inconclusive results, whose numbers are uncertain, are shown with a selection of clear calls. Calls follow the shape of the dose curve; as a rule, active = well fitted inhibition curve with a large enough effect; inconclusive = small, poorly fitted or top-dose-only effect, or another doubt; inactive = no such curve, though single readings can be large or run the other way. Potencies of inconclusive entries are doubtful fits and often do not repeat.
target: Vitamin D3 receptor (Homo sapiens) (UniProt P11473); assay: Inhibitors of the vitamin D receptor (VDR): qHTS; conditions: VDR-SRC2-3 peptide fluorescence polarization, 2 h; max response, negative = inhibition: active compounds read low
Outline: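 FP read-out; VDR + SRC2-3 coactivator peptide; 23 nl compound by pintool; 2 h RT incubation; reagents held at 4 deg C, protected from light.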
% is scaled to controls: 0 for no effect and ±100 for the full control effect; potency is read from the fitted curve at half-maximal effect.

Protein sequences, listed by entry. Tags and fused reporters are not part of them. Lines headed by an entry give the natural chain unless they say otherwise; changes in a name come on top.
UniProt P11473: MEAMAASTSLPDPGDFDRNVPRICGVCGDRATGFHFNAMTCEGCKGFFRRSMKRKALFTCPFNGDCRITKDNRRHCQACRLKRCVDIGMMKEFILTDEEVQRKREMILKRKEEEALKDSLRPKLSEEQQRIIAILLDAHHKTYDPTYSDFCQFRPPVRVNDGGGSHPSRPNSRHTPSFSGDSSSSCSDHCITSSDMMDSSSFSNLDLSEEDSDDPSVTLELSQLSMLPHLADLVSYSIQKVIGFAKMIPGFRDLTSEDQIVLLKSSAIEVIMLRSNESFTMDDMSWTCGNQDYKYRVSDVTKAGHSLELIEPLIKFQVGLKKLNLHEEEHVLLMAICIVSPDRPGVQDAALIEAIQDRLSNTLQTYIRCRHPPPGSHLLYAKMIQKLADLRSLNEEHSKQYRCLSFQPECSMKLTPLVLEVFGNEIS

Compound | max response, negative = inhibition | Potency
O=C(NCCc1ccccc1)c1cc2ccccc2oc1=O | inactive: 2.82% | 
COc1ccc(C(=O)CCS(=O)(=O)c2ccc(C)cc2)cc1 |  | inconclusive: 28.2 µM [inhibitor, full curve, poor fit]
COc1ccc(S(=O)(=O)Nc2cc(Sc3ncn[nH]3)c(O)c3ccccc23)cc1 |  | active: 20 µM
Cc1cnc(NC(=O)CCCc2nc3ccccc3s2)s1 |  | inconclusive: 79.4 µM [inhibitor, single point]
COc1ccc(C(=O)/C=C(\N)C(F)(F)F)c(O)c1 | inactive: 9.49% | 
Cc1ccc(N=C2N=C(N)c3ccccc32)cc1C |  | inconclusive: 25.1 µM [inhibitor, partial curve, poor fit]
CSc1ccc(Cl)c(C(=O)OCC(=O)NC2CC2)c1 |  | inconclusive: 100 µM [inhibitor, single point]
Oc1ccc(Cl)cc1C1=NNC(c2cccs2)C1 (centres undefined) |  | inconclusive: 31.6 µM [inhibitor, single point]
CCOc1ccc(-n2c(SCC(N)=O)nnc2-c2ccco2)cc1 |  | inconclusive: 39.8 µM [inhibitor, single point]
O=C1C=CC(=O)C(CNc2ccc(C(=O)OCc3ccccc3)cc2)=C1 |  | inconclusive: 56.2 µM [inhibitor, partial curve, poor fit]
Cc1cc(Cl)c(S(=O)(=O)N2CCN(c3ccccn3)CC2)cc1OCC(=O)NC1CCCCC1 |  | inconclusive: 100 µM [inhibitor, single point]
CCCCc1nn2c(=O)cc(COC(=O)c3cccc(Cl)c3)nc2s1 | inactive: 13.5% | 
COc1ccc(NC(=O)CSc2nc(O)cc(=O)[nH]2)c(OC)c1 |  | inconclusive: 39.8 µM [inhibitor, single point]
CCOc1ccc(N(CC(=O)N2CCN(c3ccccc3)CC2)S(=O)(=O)c2c(C)noc2C)cc1 |  | inconclusive: 70.8 µM [inhibitor, partial curve, poor fit]
CC1CN(C2=NC(=O)/C(=C3/C(=O)N(Cc4ccc(F)cc4)c4ccccc43)S2)CC(C)O1 (centres undefined) |  | inconclusive: 70.8 µM [inhibitor, partial curve, poor fit]
COC(=O)c1cscc1S(=O)(=O)Cc1ccccc1 | inactive: -17.3% | 
O=C(c1ccc(Cl)cc1)N1CCC(c2nc3ccccc3o2)CC1 | inactive: -2.81% | 
Cc1ccc(NC(=O)c2cc(N3C(=O)C=CC3=O)ccc2N2CCOCC2)cc1 |  | active: 28.2 µM
CC(=O)OCCCNc1cc(SCc2ccco2)c2nonc2c1[N+](=O)[O-] |  | active: 79.4 µM
Cc1ccc(C)c(NC(=O)CN(C)C(=O)c2cccc(Oc3ccccc3)c2)c1 |  | inconclusive: 100 µM [inhibitor, single point]
COc1cccc(NC(=O)CN2C(=O)NC3(CCCc4ccccc43)C2=O)c1 (centres undefined) | inactive: -4.54% | 
COc1ccc(NC(=O)c2c(NCc3cccs3)sc3c2CCCC3)c(OC)c1 | inactive: 4.54% | 
O=C(CCn1cccc1)Nc1nccs1 | inactive: -1.14% | 

4 entries from above, in CSV form.
Compound,"max response, negative = inhibition",Potency
COc1ccc(C(=O)/C=C(\N)C(F)(F)F)c(O)c1,inactive: 9.49%,
COc1ccc(NC(=O)CSc2nc(O)cc(=O)[nH]2)c(OC)c1,,"inconclusive: 39.8 µM [inhibitor, single point]"
CCOc1ccc(N(CC(=O)N2CCN(c3ccccc3)CC2)S(=O)(=O)c2c(C)noc2C)cc1,,"inconclusive: 70.8 µM [inhibitor, partial curve, poor fit]"
O=C(c1ccc(Cl)cc1)N1CCC(c2nc3ccccc3o2)CC1,inactive: -2.81%,

Further results follow.

Compound | max response, negative = inhibition | Potency
C=CCOc1nc(N(C)C)nc(N(C)C)n1 |  | inconclusive: 39.8 µM [inhibitor, partial curve, poor fit]
O=C(NC1CCCCCC1)c1cccs1 | inactive: 15.3% | 
Cc1cc(/C=C\c2nc(O)c([N+](=O)[O-])c(=O)[nH]2)c(C)n1-c1ccccc1 | inactive: -12.6% | 
Cc1cc(C)cc(N2CC(C(=O)NC3CCCCC3)CC2=O)c1 (centres undefined) |  | inconclusive: 79.4 µM [inhibitor, single point]
CCOC(=O)CSC(=S)NC(=O)c1ccc(OC)cc1 |  | inconclusive: 79.4 µM [inhibitor, single point]
O=[N+]([O-])c1ccc2[nH]c(=S)sc2c1 |  | inconclusive: 89.1 µM [inhibitor, single point]
O=C(CSc1nnc(-c2ccco2)o1)NC1CCCCCC1 |  | inconclusive: 2.82 µM [inhibitor, partial curve, poor fit]
CC(=O)c1ccc(OCCCC(=O)n2nnc3ccccc32)cc1 |  | inconclusive: 15.8 µM [inhibitor, full curve, poor fit]
Cc1ccccc1-c1nc(NCCN2CCOCC2)c2ccccc2n1 |  | inconclusive: 50.1 µM [inhibitor, partial curve]
O=C(CCC1CCCC1)N1CCc2c([nH]c3ccccc23)C1c1ccc(F)cc1 (centres undefined) |  | inconclusive: 39.8 µM [inhibitor, single point]
O=C(c1cc(-c2cccc(Cl)c2)on1)N1CCCCC1 | inactive: -9.12% | 
Oc1c(Cl)cc(Cl)cc1/C=N/c1nccs1 |  | active: 79.4 µM
O=C(CCc1ccccc1)NC(=S)Nc1ccccc1Br |  | inconclusive: 3.98 µM [inhibitor, partial curve, poor fit]
[O-]/[N+](=C\c1ccncc1)c1ccc(Br)cc1 |  | active: 44.7 µM
O=C(C[C@H]1C/C=C\CC[C@H](Cc2ccc(F)cc2)C(=O)OC[C@H]2CCCN2C1=O)N[C@@H](CO)Cc1ccccc1 | inactive: 9.09% | 
N#CCCCS(=O)(=O)c1nnnn1C1CCCCC1 | inactive: 7.92% | 
c1ccc(CNc2nc(-c3cccnc3)cs2)cc1 |  | inconclusive: 79.4 µM [inhibitor, single point]
O=C(/C=C/c1cccc([N+](=O)[O-])c1)c1ccco1 |  | inconclusive: 14.1 µM [inhibitor, full curve]
CC(=O)OCCN(C)c1cc(SC(C)C)c2nonc2c1[N+](=O)[O-] |  | inconclusive: 79.4 µM [inhibitor, single point]
COc1c(C2=CC(=O)N(C)C2=O)c2c(n1C)C(=O)c1ccccc1C2=O |  | active: 12.6 µM
CCC(=O)/C=C1\Sc2ccc(OC)cc2N1CC |  | inconclusive: 79.4 µM [inhibitor, single point]
O=C(CNC(=O)C12CC3CC(CC(C3)C1)C2)Nc1ncccc1O |  | inconclusive: 89.1 µM [inhibitor, single point]
C=C1C2=CC(=O)OC(c3ccoc3)[C@]2(C)CCC1[C@]1(C)C=CC(=O)C(C)(C)C1CC(=O)OC (some centres undefined) |  | active: 39.8 µM

Compound | max response, negative = inhibition | Potency
Cc1c(CC(=O)NCC(=O)O)c(=O)oc2cc3occ(-c4ccccc4)c3cc12 | inactive: -8.37% | 
Cc1cccc2nc(CSc3nc4ccc([N+](=O)[O-])cc4[nH]3)c(Br)n12 |  | inconclusive: 89.1 µM [inhibitor, single point]
O=c1[nH]cnc2c1N=C(c1cccc([N+](=O)[O-])c1)CC(c1ccccc1)N2 (centres undefined) |  | inconclusive: 100 µM [inhibitor, single point]
CC(C)C(=O)N1CCC(n2nccc2NC(=O)CCOc2ccccc2)CC1 | inactive: 11.4% | 
CCOC(=O)c1c(C)[nH]c(CCC(=O)NCc2ccc(OC)cc2OC)c1C | inactive: 20.1% | 
Cc1ccc(/C=C/C(=O)N2CC(=O)Nc3ccccc32)o1 | inactive: -9.91% | 
COc1ccc(N2CC(O)=C(c3nc(-c4ccccc4)cs3)C2=N)cc1 |  | inconclusive: 35.5 µM [inhibitor, single point]
CCOc1ccc(C(=O)CN2CCN(S(=O)(=O)c3ccc(Br)cc3)CC2)cc1 |  | inconclusive: 70.8 µM [inhibitor, partial curve]
CSCC[C@H](NC(=O)N1CCn2c1nc1ccccc12)C(=O)N[C@H](Cc1ccccc1)C(=O)O |  | inconclusive: 89.1 µM [inhibitor, single point]
CN1c2ccccc2C(O)=C(C(=O)Nc2ccccc2)S1(=O)=O | inactive: -5.93% | 
CC1CCCC(NC(=O)CCC(=O)N2CCOc3ccccc32)C1C (centres undefined) |  | inconclusive: 11.2 µM [inhibitor, partial curve, poor fit]
COc1ccc(-n2ncc3c2ncn2nc(-c4ccc(OC)c(OC)c4)nc32)cc1 | inactive: 20.1% | 
CSCC[C@H](N)C(=O)N[C@@H](CO)C(=O)N[C@@H](CCCN=C(N)N)C(=O)N1CCC[C@H]1C(=O)N[C@@H](C)C(=O)N[C@@H](CS)C(=O)N1CCC[C@H]1C(=O)N[C@@H](CC(N)=O)C(=O)N[C@@H](CC(=O)O)C(=O)N[C@@H](CCCCN)C(=O)N[C@@H](Cc1ccc(O)cc1)C(=O)N[C@@H](CCC(=O)O)C(=O)O | inactive: 7.48% | 
CC(C)=CCOc1ccc2ccc(=O)oc2c1 | inactive: -1.56% | 
COc1ccccc1NC(=O)c1cc(=O)[nH]c2ccccc12 |  | inconclusive: 89.1 µM [inhibitor, single point]
COc1cc2c(cc1OC)C(SC)=NC1(CCCC1)C2 |  | inconclusive: 39.8 µM [inhibitor, single point]
O=c1[nH][nH]c2c(N=Cc3ccccc3O)ccc(F)c12 |  | inconclusive: 44.7 µM [inhibitor, partial curve, poor fit]
Cc1ccc(C(=O)c2c(NC(=O)c3ccccc3)sc(C)c2C)cc1 |  | inconclusive: 44.7 µM [inhibitor, partial curve, poor fit]
Cc1cc(NC(=O)COc2ccc(C)c(C)c2)no1 |  | inconclusive: 100 µM [inhibitor, single point]
CC(NS(=O)(=O)c1ccc2c(c1)CCN2C(=O)CCCC(=O)O)c1ccccc1 (centres undefined) | inactive: -9.03% | 
N#Cc1nc(/C=C/c2ccc(F)cc2)oc1N1CCCCCC1 | inactive: 6.67% | 
Cc1ccc(NC(=O)/C(C#N)=C(\N)C(Cl)(Cl)Cl)nc1 |  | inconclusive: 70.8 µM [inhibitor, partial curve]
Cc1ccc(S(=O)(=O)/N=C2/C=C(Sc3ncn[nH]3)C(=O)c3ccccc32)cc1 |  | active: 10 µM
